Source: the supplement of paper PMC10849652
The other results are listed elsewhere or left out.

Protein sequences, listed by entry. Tags and fused reporters are not part of them. Lines headed by an entry give the natural chain unless they say otherwise; changes in a name come on top.
UniProt P00568: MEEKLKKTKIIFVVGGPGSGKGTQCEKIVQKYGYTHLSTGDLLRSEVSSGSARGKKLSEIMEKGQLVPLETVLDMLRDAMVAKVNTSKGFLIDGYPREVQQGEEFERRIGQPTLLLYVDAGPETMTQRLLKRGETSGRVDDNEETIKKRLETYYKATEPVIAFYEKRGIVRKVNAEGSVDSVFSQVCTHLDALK
UniProt P14621: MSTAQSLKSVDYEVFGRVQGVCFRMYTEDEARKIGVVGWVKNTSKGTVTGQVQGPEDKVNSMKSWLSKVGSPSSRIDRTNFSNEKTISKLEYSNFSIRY
UniProt Q53H80, whole entry, looked up: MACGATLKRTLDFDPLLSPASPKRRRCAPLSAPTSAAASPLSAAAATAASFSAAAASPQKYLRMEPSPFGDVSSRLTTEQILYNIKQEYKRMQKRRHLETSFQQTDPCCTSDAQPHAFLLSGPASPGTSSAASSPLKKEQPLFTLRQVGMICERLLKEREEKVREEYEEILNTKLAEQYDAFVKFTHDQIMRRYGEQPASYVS
UniProt O15120: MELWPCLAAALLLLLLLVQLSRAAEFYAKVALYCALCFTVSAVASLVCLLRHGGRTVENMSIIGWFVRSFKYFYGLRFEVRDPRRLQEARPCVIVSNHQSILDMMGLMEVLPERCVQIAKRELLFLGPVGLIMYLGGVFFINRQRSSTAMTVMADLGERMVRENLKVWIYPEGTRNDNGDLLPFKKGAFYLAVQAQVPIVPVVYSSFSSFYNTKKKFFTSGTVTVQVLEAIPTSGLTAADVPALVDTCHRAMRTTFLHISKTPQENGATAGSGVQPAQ

Columns and labels:
Test in all cases: log2 fold change, soluble protein after heating vs DMSO (PISA); higher = thermal stabilisation; K562 lysate, 10 uM; active = over 0.2 and 3.5 SD of the protein, either way, in both replicates (recomputed)
vemurafenib = compound: CCCS(=O)(=O)Nc1ccc(F)c(C(=O)c2c[nH]c3ncc(-c4ccc(Cl)cc4)cc23)c1F [vemurafenib]
How it was run: (§1)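 To prepare the extract, K562 pellets were dounce-homogenised in PBS pH 7.4 with 1 mM MgCl2, giving crude material at 1 mg/mL protein. This was treated with 10 μM compound for 30 min, then heated in aliquots for 3 min over 48°C-58°C before pooling and addition of NP-40 to 0.5% at 4°C. Centrifugation at 21,000xg for 90 min left soluble protein in the supernatant, which TMTpro 16plex LC-MS/MS quantified with equalised channel sums. Results are log-two fold changes in thermal stability compared with solvent controls, from duplicates.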

[1] = compound: CCCS(=O)(=O)Nc1ccc(F)c(C(=O)c2c[nH]c3ncc(Cl)cc23)c1F
How it was run: as §1

barasertib = compound: CCN(CCCOc1ccc2c(Nc3cc(CC(=O)Nc4cccc(F)c4)[nH]n3)ncnc2c1)CCOP(=O)(O)O [barasertib]
How it was run: as §1

[2] = compound: CC[C@@H]1C(=O)N(C)c2cnc(Nc3ccc(C(=O)NC4CCN(C)CC4)cc3OC)nc2N1C1CCCC1
How it was run: as §1

volasertib = compound: CC[C@@H]1C(=O)N(C)c2cnc(Nc3ccc(C(=O)N[C@H]4CC[C@H](N5CCN(CC6CC6)CC5)CC4)cc3OC)nc2N1C(C)C [volasertib]
How it was run: as §1

[3] = compound: CCn1c(C(=O)N(C2CC2)C2CC2)cc2c3c(ncn3C)c(Nc3cc(C)n(C)n3)nc21
How it was run: as §1

[4] = compound: CCn1cc(-c2ccnc3[nH]c(-c4cccc(CN(C)C)c4)cc23)c(-c2ccc(NC(=O)N(C)C)cc2)n1
How it was run: as §1

[5] = compound: CN1CCC(CNc2ccc3ncc(-c4cccc(OC(F)(F)F)c4)n3n2)CC1
How it was run: as §1

saracatinib = compound: CN1CCN(CCOc2cc(OC3CCOCC3)c3c(Nc4c(Cl)ccc5c4OCO5)ncnc3c2)CC1 [saracatinib]
How it was run: as §1

sotrastaurin = compound: CN1CCN(c2nc(C3=C(c4c[nH]c5ccccc45)C(=O)NC3=O)c3ccccc3n2)CC1 [sotrastaurin]
How it was run: as §1

alvocidib = compound: CN1CC[C@H](c2c(O)cc(O)c3c(=O)cc(-c4ccccc4Cl)oc23)[C@H](O)C1 [alvocidib]
How it was run: as §1

Tubastatin A = compound: CN1CCc2c(c3ccccc3n2Cc2ccc(C(=O)NO)cc2)C1 [Tubastatin A]
How it was run: as §1

[6] = compound: CNC(=O)C1=CC=CC=C1NC2=NC(=NC=C2Cl)NC3=C(C=C(C=C3)N4CCOCC4)OC
How it was run: as §1

defactinib = compound: CNC(=O)c1ccc(Nc2ncc(C(F)(F)F)c(NCc3nccnc3N(C)S(C)(=O)=O)n2)cc1 [defactinib]
How it was run: as §1

[7] = compound: CNc1nc(-c2ccc3c(N)n[nH]c3c2)cc(N2C[C@@H](C(=O)NC3CCCCC3)CC[C@H]2C)n1
How it was run: as §1

encorafenib = compound: COC(=O)N[C@@H](C)CNc1nccc(-c2cn(C(C)C)nc2-c2cc(Cl)cc(NS(C)(=O)=O)c2F)n1 [encorafenib]
How it was run: as §1

[8] = compound: COC(=O)[C@H](CCSC)NC(=O)C1=C(C=C(C=C1)NC[C@H](CS)N)C2=CC=CC=C2
How it was run: as §1

alisertib = compound: COc1cc(Nc2ncc3c(n2)-c2ccc(Cl)cc2C(c2c(F)cccc2OC)=NC3)ccc1C(=O)O [alisertib]
How it was run: as §1

[9] = compound: COc1cc2nc(-c3cc(F)ccc3O)nc(N[C@@H]3CNC[C@H]3C(C)(C)O)c2cc1OC
How it was run: as §1

gefitinib = compound: COc1cc2ncnc(Nc3ccc(F)c(Cl)c3)c2cc1OCCCN1CCOCC1 [gefitinib]
How it was run: as §1

## AK1 (UniProt P00568)
vemurafenib
  log2 fold change: inactive: 0.01
[1]
  log2 fold change: inactive: -0.036
barasertib
  log2 fold change: inactive: -0.012
[2]
  log2 fold change: inactive: -0.027
volasertib
  log2 fold change: inactive: 0.021
[3]
  log2 fold change: inactive: 0.017
[4]
  log2 fold change: active: 0.332
[5]
  log2 fold change: inactive: -0.135
saracatinib
  log2 fold change: inactive: -0.012
sotrastaurin
  log2 fold change: inactive: -0.024
alvocidib
  log2 fold change: inactive: 0.154
Tubastatin A
  log2 fold change: inactive: 0.009
[6]
  log2 fold change: inactive: -0.034
defactinib
  log2 fold change: inactive: -0.035
[7]
  log2 fold change: inactive: -0.007
encorafenib
  log2 fold change: inactive: -0.036
[8]
  log2 fold change: inactive: -0.07
alisertib
  log2 fold change: inactive: 0
[9]
  log2 fold change: inactive: 0.013
gefitinib
  log2 fold change: inactive: -0.019

## ACTB, A0A2R8YEA7
vemurafenib
  log2 fold change: inactive: 0.134
[1]
  log2 fold change: inactive: 0.047
volasertib
  log2 fold change: inactive: -0.119
[4]
  log2 fold change: inactive: -0.232
[5]
  log2 fold change: inactive: -0.022
alvocidib
  log2 fold change: inactive: 0.156
defactinib
  log2 fold change: inactive: 0.04
alisertib
  log2 fold change: inactive: 0
[9]
  log2 fold change: inactive: 0.044
gefitinib
  log2 fold change: inactive: 0.027

## ACYP2 (UniProt P14621)
vemurafenib
  log2 fold change: inactive: -0.245
[1]
  log2 fold change: inactive: -0.023
barasertib
  log2 fold change: inactive: 0.04
volasertib
  log2 fold change: inactive: 0.011
[3]
  log2 fold change: inactive: -0.007
[4]
  log2 fold change: inactive: 0.189
[5]
  log2 fold change: inactive: -0.036
sotrastaurin
  log2 fold change: inactive: -0.019
alvocidib
  log2 fold change: inactive: 0.084
Tubastatin A
  log2 fold change: inactive: -0.021
[6]
  log2 fold change: inactive: 0.007
defactinib
  log2 fold change: active: 0.329
alisertib
  log2 fold change: inactive: -0.096
[9]
  log2 fold change: inactive: -0.009
gefitinib
  log2 fold change: inactive: -0.02

## AKIRIN2 (UniProt Q53H80)
vemurafenib
  log2 fold change: inactive: 0.01
[1]
  log2 fold change: inactive: -0.01
[2]
  log2 fold change: inactive: -0.057
volasertib
  log2 fold change: inactive: -0.015
[3]
  log2 fold change: inactive: -0.15
[4]
  log2 fold change: inactive: 0.038
[5]
  log2 fold change: inactive: -0.02
saracatinib
  log2 fold change: inactive: 0.056
sotrastaurin
  log2 fold change: inactive: 0.009
alvocidib
  log2 fold change: inactive: 0.036
Tubastatin A
  log2 fold change: inactive: -0.199
[6]
  log2 fold change: inactive: -0.191
defactinib
  log2 fold change: inactive: -0.068
[7]
  log2 fold change: inactive: 0.092
encorafenib
  log2 fold change: inactive: 0.003
[8]
  log2 fold change: inactive: -0.16
alisertib
  log2 fold change: inactive: 0.016
[9]
  log2 fold change: inactive: -0.023
gefitinib
  log2 fold change: inactive: 0.049

## AGPAT2 (UniProt O15120)
vemurafenib
  log2 fold change: active: 0.33
[2]
  log2 fold change: inactive: 0.108
[3]
  log2 fold change: inactive: 0.002
[4]
  log2 fold change: inactive: -0.034
[5]
  log2 fold change: inactive: 0.023
sotrastaurin
  log2 fold change: inactive: 0
alvocidib
  log2 fold change: inactive: -0.008
Tubastatin A
  log2 fold change: inactive: 0.01
[6]
  log2 fold change: inactive: 0.091
defactinib
  log2 fold change: inactive: -0.104
encorafenib
  log2 fold change: inactive: 0.054
[8]
  log2 fold change: inactive: -0.043
alisertib
  log2 fold change: inactive: 0.009
gefitinib
  log2 fold change: inactive: 0.052
